The other results are listed elsewhere or left out. The main result of the screen is listed elsewhere. These columns were measured beside it and carry no call. The list favours compounds with an active or inconclusive main result. Words in brackets tell the shape of the fitted curve; partial curves, single points and poor fits give uncertain potencies.
Experiment: qHTS Assay for Modulators of Lamin A Splicing
Conditions: HeLa LMNA splicing GFP/RFP minigene ratio, 48 h
In short: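 S3 HeLa cells stably expressing lamin A-EGFP splicing minigene plus DsRed2, 600 cells/well, 48 h compound exposure at 37C. Laser-scanning cytometry; analysed as GFP (500-530 nm)/RFP (575-640 nm) total intensity ratio; 0.5% DMSO vehicle.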

[1] = measured here: GFP splicing reporter channel
[2] = measured here: RFP viability control channel

Compound	AC50 [1]	AC50 [2]
CCOC(=O)c1ccc(NC(=S)N(CCN2CCCCCC2)Cc2cccs2)cc1	17.8 µM [falling, single point]	–
COC(=O)c1cccc(NC(=O)c2nn(C)c(=O)c3ccccc23)c1	35.5 µM [rising, single point]	–
O=C(CNC(=O)c1ccc(Cl)cc1)NCC(F)(F)F	6.31 µM [rising, partial curve, poor fit]	–
C/C(=N\Nc1cccc2cccnc12)c1ccc[nH]1	0.2 µM [rising, full curve]	14.1 µM [rising, partial curve, poor fit]
CCCN(CCC)S(=O)(=O)c1ccc(C(=O)N2CCCc3ccccc32)cc1	–	31.6 µM [rising, single point]
N#Cc1c(Nc2cccc(F)c2)sc2c(O)cc(=O)[nH]c12	–	35.5 µM [rising, single point]
COc1ccc(/C(N)=N/OC(=O)Cc2cccs2)cc1OC	0.0282 µM [rising, partial curve, poor fit]	0.0891 µM [rising, full curve, poor fit]
Cc1ccc(N(CC(=O)Nc2ccc(F)c(Cl)c2)S(=O)(=O)c2c(C)noc2C)cc1	35.5 µM [rising, single point]	20 µM [rising, single point]
Cc1nn(CC(O)CN2c3ccccc3Sc3ccccc32)c(C)c1Br (configuration not stated)	22.4 µM [falling, single point]	35.5 µM [falling, partial curve, poor fit]
CCC(=O)N1CCN(c2ccc(NC(=O)COc3ccccc3Cl)cc2)CC1	–	12.6 µM [rising, single point]
O=C(CN1CCSc2ccccc21)NCCCc1ccccc1	35.5 µM [rising, single point]	–
CN1CCN(C(=O)c2ccc(S(=O)(=O)c3ccc(Br)cc3)cc2)CC1	–	10 µM [rising, partial curve]
Cc1c(Cl)cccc1-n1c(SCC(=O)N2CCC(C(=O)O)CC2)nnc1-c1ccncc1	0.562 µM [falling, full curve, poor fit]	0.158 µM [falling, single point]
Cc1cc(Nc2cccc(Cl)c2)nc2ccc(NC(=O)Cc3c(F)cccc3Cl)cc12	0.0794 µM [falling, partial curve]	–
CCOC(=O)C(=O)NNc1ccccc1C	31.6 µM [rising, single point]	–
CC(=O)Nc1ccc2c(c1)c1ccccc1n2C(C)=O	35.5 µM [rising, single point]	3.55 µM [rising, partial curve, poor fit]

Sorted by formula weight (ascending): part of the list above
Compound	AC50 [1]	AC50 [2]
CCCN(CCC)S(=O)(=O)c1ccc(C(=O)N2CCCc3ccccc32)cc1	–	31.6 µM [rising, single point]
CN1CCN(C(=O)c2ccc(S(=O)(=O)c3ccc(Br)cc3)cc2)CC1	–	10 µM [rising, partial curve]
CCOC(=O)c1ccc(NC(=S)N(CCN2CCCCCC2)Cc2cccs2)cc1	17.8 µM [falling, single point]	–
